Values quoted from earlier work, collected in US11179353B1, “Composition and method for prevention and treatment of radiation dermatitis” (Rythera Therapeutics, Inc., priority 2020, dated 2021).
At least one structure is not confirmed: it was looked up by name or label, or the drawing left a doubt.

Test system: Syrian hamster embryos
Conditions: Syrian hamster embryos exposed to radiation in utero

CCCCC(C)(O)C/C=C/[C@H]1[C@H](O)CC(=O)[C@@H]1CCCCCCC(=O)OC (mixture of isomers) [Misoprostol]
radioprotection: preventing oncogenic transformation: effective radioprotector
